Measurements reported in PubChem BioAssay AID1259280 (Sanger Institute, 2017).
Here is one part, drawn at random, of 794 reagents. 12 of them (1.5%) were called active. 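Calls cover knock-down without drug only; synergy scores stand apart, values above 0.15 being treated as synergy.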 Unmarked entries are inactive. Viability is capped at 1. Not given: the amount of reagent, the time to read-out.

- Purpose: 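Kinome siRNA screen for partners that synergise with BYL719, cetuximab or trametinib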 (primary screen)
- System: human SNU407 colorectal cancer cells
- Knock-down reagent: siRNA pool against human genes
- Challenge: anchor drugs BYL719 at 1 µM, cetuximab at 5 µg/ml or trametinib at 10 nM, or DMSO vehicle alone; exposure time not given
- Detection: 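Viability per well scaled to a non-targeting pool and averaged over replicates, with a robust z-score from controls and a synergy score per anchor drug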
- Direction: viability z-score, no drug and viability vs control, no drug: higher = more cells survive the knock-down; synergy with trametinib and synergy with BYL719 and synergy with cetuximab: higher = stronger synergy of knock-down with drug
- Rule for the call: 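a knock-down counts as essential when its robust viability z-score without drug is below -3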
- Calls: active = essential (knock-down alone kills cells); inactive = no change without drug

Target gene | viability z-score, no drug | viability vs control, no drug (fraction of control) | synergy with trametinib | synergy with BYL719 | synergy with cetuximab
WNK3 (GeneID 65267) | 0.71 | 0.985 | -0.00945 | 0.0197 | -0.00808
KHK (GeneID 3795) | -0.00442 | 0.931 | 0.0796 | 0.074 | 0.0268
NEK6 (GeneID 10783) | 0.824 | 0.994 | -0.00819 | 0.11 | 0.086
MAP4K2 (GeneID 5871) | -0.48 | 0.894 | 0.0322 | -0.0254 | 0.0126
ANKK1 (GeneID 255239) | -0.472 | 0.895 | -0.0515 | 0.0245 | 0.0612
HUS1 (GeneID 3364) | 0.901 | 1 | -0.107 | -0.0673 | -0.0387
PTGS1 (GeneID 5742) | 0.587 | 0.976 | -0.0087 | 0.157 | 0.0629
SYNCRIP (GeneID 10492) | -2.47 | 0.742 | 0.008 | 0.0547 | -0.0114
CUL1 (GeneID 8454) | 0.0398 | 0.934 | -0.0603 | -0.0237 | -0.0545
MASTL (GeneID 84930) | 0.507 | 0.97 | 0.135 | 0.114 | 0.0213
MAP3K21 (GeneID 84451) | -0.0242 | 0.929 | -0.108 | -0.0121 | -0.0863
RTN4 (GeneID 57142) | 0.56 | 0.974 | -0.041 | 0.0559 | 0.0036
GRK2 (GeneID 156) | -1.58 | 0.81 | -0.00578 | 0.0602 | 0.05
MAP3K13 (GeneID 9175) | 0.901 | 1 | 0.0368 | 0.0271 | 0.0229
MAP4K5 (GeneID 11183) | -0.914 | 0.861 | 0.069 | 0.0432 | -0.0831
TP53BP1 (GeneID 7158) | 0.265 | 0.951 | -0.0822 | -0.0473 | -0.0595
ACSL6 (GeneID 23305) | -0.724 | 0.876 | -0.0822 | 0.0697 | -0.0555
WHR1 (GeneID 8859) | -1.26 | 0.835 | -0.126 | -0.0526 | -0.186
PANK1 (GeneID 53354) | 0.865 | 0.997 | -0.068 | -0.0116 | 0.0986
TESK2 (GeneID 10420) | 0.855 | 0.997 | -0.101 | -0.129 | -0.0918
PRKCI (GeneID 5584) | 0.901 | 1 | 0.101 | 0.0683 | 0.0613
ADPGK (GeneID 83440) | -0.362 | 0.903 | -0.0324 | 0.0402 | 0.0398
MAP2K3 (GeneID 5606) | 0.901 | 1 | 0.0677 | 0.0811 | 0.0601
DBF4 (GeneID 10926) | 0.372 | 0.96 | 0.0151 | -0.0958 | -0.125
TGFBR3 (GeneID 7049) | 0.901 | 1 | -0.00269 | -0.0222 | -0.0886
PRKCSH (GeneID 5589) | -0.0643 | 0.926 | 0.0955 | 0.0164 | 0.0114
MAP3K8 (GeneID 1326) | -0.478 | 0.895 | 0.0455 | 0.112 | 0.00181

No new results follow: entries from further up.
Target gene | viability z-score, no drug | viability vs control, no drug (fraction of control) | synergy with trametinib | synergy with BYL719 | synergy with cetuximab
ANKK1 (GeneID 255239) | -0.472 | 0.895 | -0.0515 | 0.0245 | 0.0612
HUS1 (GeneID 3364) | 0.901 | 1 | -0.107 | -0.0673 | -0.0387
PTGS1 (GeneID 5742) | 0.587 | 0.976 | -0.0087 | 0.157 | 0.0629
SYNCRIP (GeneID 10492) | -2.47 | 0.742 | 0.008 | 0.0547 | -0.0114
CUL1 (GeneID 8454) | 0.0398 | 0.934 | -0.0603 | -0.0237 | -0.0545
MASTL (GeneID 84930) | 0.507 | 0.97 | 0.135 | 0.114 | 0.0213
MAP3K21 (GeneID 84451) | -0.0242 | 0.929 | -0.108 | -0.0121 | -0.0863
RTN4 (GeneID 57142) | 0.56 | 0.974 | -0.041 | 0.0559 | 0.0036

Next results:
Target gene | viability z-score, no drug | viability vs control, no drug (fraction of control) | synergy with trametinib | synergy with BYL719 | synergy with cetuximab
EFNA5 (GeneID 1946) | 0.901 | 1 | -0.0114 | -0.119 | -0.0532
EPHA7 (GeneID 2045) | 0.901 | 1 | -0.0641 | 0.00672 | -0.00743
GRK4 (GeneID 2868) | -0.13 | 0.921 | -0.00244 | -0.00416 | -0.0135
ERBB3 (GeneID 2065) | 0.287 | 0.953 | -0.0398 | -0.0839 | -0.0626
ALK (GeneID 238) | -1.83 | 0.791 | 0.0116 | 0.0118 | -0.0243
AURKA (GeneID 6790) | -5 (active) | 0.549 | 0.0246 | 0.0764 | -0.00686
TNIK (GeneID 23043) | -2.12 | 0.769 | -0.0518 | -0.0755 | -0.0743
TLK2 (GeneID 11011) | 0.901 | 1 | -0.0875 | -0.109 | -0.0713
NRBP1 (GeneID 29959) | -0.15 | 0.92 | -0.0744 | 0.0596 | -0.0159
PANK4 (GeneID 55229) | 0.125 | 0.941 | 0.0703 | 0.129 | 0.11
PAPSS1 (GeneID 9061) | 0.452 | 0.966 | -0.0264 | 0.0987 | -0.0518
PIK3R1 (GeneID 5295) | 0.901 | 1 | -0.0898 | -0.0435 | -0.0375
NEK2 (GeneID 4751) | -0.193 | 0.916 | -0.0333 | 0.0442 | -0.0356
CRIM1 (GeneID 51232) | 0.256 | 0.951 | -0.08 | -0.0395 | 0.0364
ARAF (GeneID 369) | 0.901 | 1 | -0.101 | -0.0983 | 0.0477
TPK1 (GeneID 27010) | -1.95 | 0.782 | -0.01 | -0.0608 | -0.0858
MAPK1 (GeneID 5594) | -1.21 | 0.838 | -0.00613 | 0.00433 | 0.0598
MAPK6 (GeneID 5597) | -0.143 | 0.92 | -0.025 | -0.0482 | 0.0475
COQ8B (GeneID 79934) | 0.747 | 0.988 | 0.00365 | 0.0995 | 0.0237
MAPK11 (GeneID 5600) | 0.721 | 0.986 | 0.0941 | 0.0987 | 0.0402
IKBKB (GeneID 3551) | -1.45 | 0.82 | 0.0362 | -0.03 | -0.107
MAP3K6 (GeneID 9064) | -0.213 | 0.915 | -0.0186 | -0.0438 | -0.0799
EFNB3 (GeneID 1949) | -1.06 | 0.85 | 0.149 | 0.151 | 0.118
